# Experimental data reported in the supplement of paper PMC12819154, “High-throughput peptide-centric local stability assay extends protein–ligand identification to membrane proteins, tissues and bacteria” (Nature Structural & Molecular Biology, 2025).
# By UniProt entry, the sequences of proteins in these tests, tags left out. Where a name states a change or a piece, a line headed by the entry shows the natural chain unless it says otherwise.
# UniProt Q9H6X5: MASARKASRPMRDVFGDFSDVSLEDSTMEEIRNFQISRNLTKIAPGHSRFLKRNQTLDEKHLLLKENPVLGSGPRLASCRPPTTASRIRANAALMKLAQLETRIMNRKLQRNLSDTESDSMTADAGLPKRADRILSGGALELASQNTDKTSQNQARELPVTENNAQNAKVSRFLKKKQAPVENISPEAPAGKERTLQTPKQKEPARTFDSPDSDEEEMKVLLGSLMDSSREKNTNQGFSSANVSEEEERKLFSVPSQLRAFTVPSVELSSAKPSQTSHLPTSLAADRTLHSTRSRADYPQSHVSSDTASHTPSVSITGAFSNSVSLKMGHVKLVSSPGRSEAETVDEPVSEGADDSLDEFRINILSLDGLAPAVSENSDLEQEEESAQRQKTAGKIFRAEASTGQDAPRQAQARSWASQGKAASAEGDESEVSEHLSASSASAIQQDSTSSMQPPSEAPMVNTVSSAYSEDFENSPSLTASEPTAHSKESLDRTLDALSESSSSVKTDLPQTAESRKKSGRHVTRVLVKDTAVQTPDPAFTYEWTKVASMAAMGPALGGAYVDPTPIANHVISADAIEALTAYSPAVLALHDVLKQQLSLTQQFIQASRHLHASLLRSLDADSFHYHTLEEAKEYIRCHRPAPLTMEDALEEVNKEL
# UniProt Q9H9B1: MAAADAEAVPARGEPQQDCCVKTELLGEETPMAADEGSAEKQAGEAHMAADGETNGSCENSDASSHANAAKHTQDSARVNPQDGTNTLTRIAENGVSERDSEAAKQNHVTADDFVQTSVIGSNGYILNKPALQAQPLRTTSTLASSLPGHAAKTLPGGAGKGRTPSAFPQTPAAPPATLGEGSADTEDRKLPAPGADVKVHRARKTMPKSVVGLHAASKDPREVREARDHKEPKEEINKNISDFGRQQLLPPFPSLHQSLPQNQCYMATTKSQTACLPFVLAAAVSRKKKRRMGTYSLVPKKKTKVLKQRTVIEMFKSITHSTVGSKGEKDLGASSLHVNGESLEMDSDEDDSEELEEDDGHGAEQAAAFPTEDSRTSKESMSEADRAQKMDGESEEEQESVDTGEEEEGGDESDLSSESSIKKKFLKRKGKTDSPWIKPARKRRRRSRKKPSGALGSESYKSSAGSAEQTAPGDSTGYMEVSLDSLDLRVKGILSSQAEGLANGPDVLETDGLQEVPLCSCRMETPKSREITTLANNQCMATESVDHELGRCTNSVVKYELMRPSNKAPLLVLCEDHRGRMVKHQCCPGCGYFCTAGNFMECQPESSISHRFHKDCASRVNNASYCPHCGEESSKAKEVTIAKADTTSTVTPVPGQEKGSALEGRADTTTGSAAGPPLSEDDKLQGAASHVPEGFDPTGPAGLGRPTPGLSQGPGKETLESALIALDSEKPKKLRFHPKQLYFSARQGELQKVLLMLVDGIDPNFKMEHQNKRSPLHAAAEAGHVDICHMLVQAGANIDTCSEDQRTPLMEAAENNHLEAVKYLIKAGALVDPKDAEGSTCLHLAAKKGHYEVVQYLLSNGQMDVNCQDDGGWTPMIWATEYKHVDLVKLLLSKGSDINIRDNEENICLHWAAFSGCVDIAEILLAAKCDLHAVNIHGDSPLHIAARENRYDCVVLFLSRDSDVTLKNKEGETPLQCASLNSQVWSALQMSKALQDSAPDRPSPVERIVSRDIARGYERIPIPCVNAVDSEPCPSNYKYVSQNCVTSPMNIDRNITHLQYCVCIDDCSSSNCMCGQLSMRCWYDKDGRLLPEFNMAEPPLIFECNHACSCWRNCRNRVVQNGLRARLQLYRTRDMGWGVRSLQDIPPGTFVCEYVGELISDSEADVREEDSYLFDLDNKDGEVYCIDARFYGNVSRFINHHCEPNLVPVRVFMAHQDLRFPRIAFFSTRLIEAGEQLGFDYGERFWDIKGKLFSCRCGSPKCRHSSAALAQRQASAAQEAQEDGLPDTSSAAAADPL
# UniProt Q9H582: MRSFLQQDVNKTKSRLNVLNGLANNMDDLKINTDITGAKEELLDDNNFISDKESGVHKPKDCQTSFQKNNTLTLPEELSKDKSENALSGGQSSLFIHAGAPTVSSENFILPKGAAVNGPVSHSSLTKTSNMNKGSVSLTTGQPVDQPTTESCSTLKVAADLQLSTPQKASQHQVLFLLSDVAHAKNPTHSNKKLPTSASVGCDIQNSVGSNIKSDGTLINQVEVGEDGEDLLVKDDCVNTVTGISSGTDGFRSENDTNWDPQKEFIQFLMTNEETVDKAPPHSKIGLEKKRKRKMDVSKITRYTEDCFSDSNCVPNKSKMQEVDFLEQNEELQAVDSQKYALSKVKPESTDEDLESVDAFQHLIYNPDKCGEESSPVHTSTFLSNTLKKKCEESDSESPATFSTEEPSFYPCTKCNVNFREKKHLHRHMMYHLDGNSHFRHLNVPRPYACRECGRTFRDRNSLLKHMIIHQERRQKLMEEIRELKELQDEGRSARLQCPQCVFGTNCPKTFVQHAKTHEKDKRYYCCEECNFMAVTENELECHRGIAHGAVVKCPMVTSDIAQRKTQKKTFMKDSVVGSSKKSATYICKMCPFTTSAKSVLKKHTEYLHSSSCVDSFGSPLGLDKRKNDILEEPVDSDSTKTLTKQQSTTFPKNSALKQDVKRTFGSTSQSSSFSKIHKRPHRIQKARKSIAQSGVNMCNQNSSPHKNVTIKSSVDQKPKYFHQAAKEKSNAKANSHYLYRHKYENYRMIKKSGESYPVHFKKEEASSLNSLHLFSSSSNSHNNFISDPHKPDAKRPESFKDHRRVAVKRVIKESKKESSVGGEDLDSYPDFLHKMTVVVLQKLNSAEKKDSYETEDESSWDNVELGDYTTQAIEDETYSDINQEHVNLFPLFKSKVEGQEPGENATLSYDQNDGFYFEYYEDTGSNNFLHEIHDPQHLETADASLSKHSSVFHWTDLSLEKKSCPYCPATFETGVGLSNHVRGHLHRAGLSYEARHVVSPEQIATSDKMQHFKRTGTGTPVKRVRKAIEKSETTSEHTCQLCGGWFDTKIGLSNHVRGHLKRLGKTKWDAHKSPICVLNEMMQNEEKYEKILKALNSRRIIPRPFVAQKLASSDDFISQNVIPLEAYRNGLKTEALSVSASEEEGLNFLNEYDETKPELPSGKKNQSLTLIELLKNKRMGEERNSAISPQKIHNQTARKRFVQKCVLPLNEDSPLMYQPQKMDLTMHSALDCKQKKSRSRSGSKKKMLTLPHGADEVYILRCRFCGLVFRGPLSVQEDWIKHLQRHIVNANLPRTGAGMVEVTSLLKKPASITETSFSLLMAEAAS
# UniProt Q9HCE5: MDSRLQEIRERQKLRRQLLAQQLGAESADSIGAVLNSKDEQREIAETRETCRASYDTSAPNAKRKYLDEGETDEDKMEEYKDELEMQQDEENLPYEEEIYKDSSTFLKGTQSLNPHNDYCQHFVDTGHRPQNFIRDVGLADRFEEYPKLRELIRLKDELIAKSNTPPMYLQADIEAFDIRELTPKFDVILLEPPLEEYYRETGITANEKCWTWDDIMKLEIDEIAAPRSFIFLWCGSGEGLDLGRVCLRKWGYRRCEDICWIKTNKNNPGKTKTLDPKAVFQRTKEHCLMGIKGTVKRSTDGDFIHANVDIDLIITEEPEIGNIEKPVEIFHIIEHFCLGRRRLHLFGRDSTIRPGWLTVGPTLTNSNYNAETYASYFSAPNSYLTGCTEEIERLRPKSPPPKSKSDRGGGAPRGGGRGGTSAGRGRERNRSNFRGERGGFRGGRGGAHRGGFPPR
# UniProt Q9HC78: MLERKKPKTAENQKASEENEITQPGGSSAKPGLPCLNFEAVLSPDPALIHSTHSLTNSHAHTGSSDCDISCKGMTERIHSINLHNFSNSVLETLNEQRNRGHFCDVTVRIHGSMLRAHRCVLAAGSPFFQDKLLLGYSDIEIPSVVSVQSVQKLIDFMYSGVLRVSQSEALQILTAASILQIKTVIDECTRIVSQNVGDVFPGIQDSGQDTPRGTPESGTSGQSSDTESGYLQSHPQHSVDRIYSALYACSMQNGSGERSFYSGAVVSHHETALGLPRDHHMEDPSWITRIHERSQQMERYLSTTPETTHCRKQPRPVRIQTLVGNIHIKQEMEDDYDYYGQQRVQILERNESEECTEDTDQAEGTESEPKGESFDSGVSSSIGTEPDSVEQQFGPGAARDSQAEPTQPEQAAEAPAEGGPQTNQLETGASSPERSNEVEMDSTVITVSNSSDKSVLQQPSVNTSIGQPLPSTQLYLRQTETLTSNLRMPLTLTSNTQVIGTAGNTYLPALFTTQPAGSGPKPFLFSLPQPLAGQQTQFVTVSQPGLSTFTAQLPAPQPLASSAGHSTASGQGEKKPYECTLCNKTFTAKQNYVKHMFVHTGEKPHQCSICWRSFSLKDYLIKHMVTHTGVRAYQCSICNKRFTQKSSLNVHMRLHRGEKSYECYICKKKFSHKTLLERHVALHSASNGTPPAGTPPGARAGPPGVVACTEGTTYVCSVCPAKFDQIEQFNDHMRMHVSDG
# UniProt Q9H7U1: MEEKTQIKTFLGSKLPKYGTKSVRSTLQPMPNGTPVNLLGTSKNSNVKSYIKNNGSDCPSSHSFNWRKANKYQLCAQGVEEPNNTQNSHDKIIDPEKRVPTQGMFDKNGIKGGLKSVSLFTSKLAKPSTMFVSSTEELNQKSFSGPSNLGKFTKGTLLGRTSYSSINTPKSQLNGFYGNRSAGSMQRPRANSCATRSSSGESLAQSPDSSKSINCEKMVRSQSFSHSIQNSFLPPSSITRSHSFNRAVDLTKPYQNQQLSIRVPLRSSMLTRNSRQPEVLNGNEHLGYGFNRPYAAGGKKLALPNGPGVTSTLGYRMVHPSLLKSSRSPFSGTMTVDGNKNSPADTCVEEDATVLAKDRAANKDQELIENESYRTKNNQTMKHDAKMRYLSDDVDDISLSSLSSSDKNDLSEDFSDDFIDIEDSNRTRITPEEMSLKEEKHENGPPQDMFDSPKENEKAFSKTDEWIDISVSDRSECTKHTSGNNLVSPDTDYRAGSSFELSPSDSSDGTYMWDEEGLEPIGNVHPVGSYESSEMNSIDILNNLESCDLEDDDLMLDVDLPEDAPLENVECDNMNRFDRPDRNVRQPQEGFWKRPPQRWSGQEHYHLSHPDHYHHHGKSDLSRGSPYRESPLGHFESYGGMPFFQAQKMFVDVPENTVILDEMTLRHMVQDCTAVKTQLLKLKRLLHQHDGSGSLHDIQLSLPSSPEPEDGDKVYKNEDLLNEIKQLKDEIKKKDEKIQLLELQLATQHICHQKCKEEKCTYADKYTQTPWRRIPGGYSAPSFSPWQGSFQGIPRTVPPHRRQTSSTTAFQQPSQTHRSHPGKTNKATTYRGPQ
# UniProt Q9H7E9: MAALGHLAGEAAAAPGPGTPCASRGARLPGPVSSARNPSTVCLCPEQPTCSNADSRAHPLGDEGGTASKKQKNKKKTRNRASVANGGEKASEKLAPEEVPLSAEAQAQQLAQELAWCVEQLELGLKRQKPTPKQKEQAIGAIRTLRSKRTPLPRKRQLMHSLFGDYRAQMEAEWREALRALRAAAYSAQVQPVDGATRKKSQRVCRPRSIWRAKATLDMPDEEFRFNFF
# UniProt Q9HC36: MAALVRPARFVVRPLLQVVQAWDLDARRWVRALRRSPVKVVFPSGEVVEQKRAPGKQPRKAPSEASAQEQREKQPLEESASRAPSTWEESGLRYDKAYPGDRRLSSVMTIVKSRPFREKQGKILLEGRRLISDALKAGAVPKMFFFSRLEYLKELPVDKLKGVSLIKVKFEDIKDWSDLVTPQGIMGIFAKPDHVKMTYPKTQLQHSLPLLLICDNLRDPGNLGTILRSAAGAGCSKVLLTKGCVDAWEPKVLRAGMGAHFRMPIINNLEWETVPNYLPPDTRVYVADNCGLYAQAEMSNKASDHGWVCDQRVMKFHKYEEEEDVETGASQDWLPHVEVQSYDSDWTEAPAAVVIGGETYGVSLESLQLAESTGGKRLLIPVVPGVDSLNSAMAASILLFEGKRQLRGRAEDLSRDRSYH
# UniProt Q9H8N7: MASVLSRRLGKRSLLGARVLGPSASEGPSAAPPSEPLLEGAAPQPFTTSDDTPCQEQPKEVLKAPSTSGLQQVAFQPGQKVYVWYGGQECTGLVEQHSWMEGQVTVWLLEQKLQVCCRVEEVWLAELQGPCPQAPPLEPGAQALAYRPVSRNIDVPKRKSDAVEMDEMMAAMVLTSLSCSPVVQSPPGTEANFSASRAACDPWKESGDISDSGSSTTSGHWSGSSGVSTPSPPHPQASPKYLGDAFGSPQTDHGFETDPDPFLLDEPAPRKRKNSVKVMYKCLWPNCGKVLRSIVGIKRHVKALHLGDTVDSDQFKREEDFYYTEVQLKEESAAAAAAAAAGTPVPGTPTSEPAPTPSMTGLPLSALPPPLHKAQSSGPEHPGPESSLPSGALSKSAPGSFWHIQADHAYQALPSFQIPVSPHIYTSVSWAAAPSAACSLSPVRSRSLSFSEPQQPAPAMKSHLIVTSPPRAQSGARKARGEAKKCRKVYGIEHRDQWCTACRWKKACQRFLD
# UniProt Q9NP97, whole entry: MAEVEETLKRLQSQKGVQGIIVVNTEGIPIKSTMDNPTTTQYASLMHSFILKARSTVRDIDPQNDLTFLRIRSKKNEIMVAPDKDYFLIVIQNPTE
# The list shows a part of the results. Most entries show no effect beyond the scatter of the controls.
# Compound: CN[C@@H]1C[C@H]2O[C@@](C)([C@@H]1OC)n1c3ccccc3c3c4c(c5c6ccccc6n2c5c31)C(=O)NC4 [staurosporine]
# Assay: log2 fold change of tryptic peptide abundance, ligand vs vehicle (limited proteolysis) (log2 ratio); higher = more trypsin-susceptible (destabilized)
# Conditions: ligand concentration: 20 uM; sample: K562 cleared lysate; digestion: 4 min, 22 C (HT-PELSA RT4min, Orbitrap Astral)
row,Target,log2 fold change
1,"C19orf44 (peptide sequence: VLLGSLMDSSR, peptide start residue: 220) (UniProt Q9H6X5)",0.142
2,"EHMT1 (peptide sequence: KLPAPGADVK, peptide start residue: 190) (UniProt Q9H9B1)",0.237
3,"ZNF644 (peptide sequence: TGAGMVEVTSLLK, peptide start residue: 1296) (UniProt Q9H582)",0.362
4,"UniProt Q9HCE5 (peptide sequence: ETCRASYDTSAPNAK, peptide start residue: 49)",-0.613
5,"UniProt Q9HC78 (peptide sequence: KPKTAENQK, peptide start residue: 6)",-0.0361
6,"CCSER2 (peptide sequence: HTSGNNLVSPDTDYR, peptide start residue: 480) (UniProt Q9H7U1)",0.495
7,"DHX33 (peptide sequence: FISSEGDHMTLLNIYR, peptide start residue: 552) (UniProt Q9H6R0)",0.399
8,"C8orf33 (peptide sequence: AALGHLAGEAAAAPGPGTPCASR, peptide start residue: 2) (UniProt Q9H7E9)",-0.313
9,"UniProt Q9HC36 (peptide sequence: VKFEDIK, peptide start residue: 168)",0.444
10,"UniProt Q9H8N7 (peptide sequence: DQWCTACR, peptide start residue: 496)",-0.178
11,"DYNLRB1 (peptide sequence: STVRDIDPQNDLTFLR, peptide start residue: 55) (UniProt Q9NP97)",0.352
